# From PubChem BioAssay (NCATS)
# The inconclusive results got no clear call from the source; some entries with a clear call stand among them for comparison. Where the call is inconclusive, the potency comes from a doubtful curve fit. The source made the active and inactive calls. Calls follow the shape of the dose curve; as a rule, active = well fitted inhibition curve with a large enough effect; inconclusive = small, poorly fitted or top-dose-only effect; inactive = no such curve, though single readings can be large or run the other way.
# Biological target: Retinaldehyde dehydrogenase 3 (Homo sapiens) (UniProt P47895)
# Assay: qHTS for Inhibitors of the Aldehyde Dehydrogenase Family (ALDH1A3) Validation screen (AID 2061312); also: nearly all actives have a fitted effect of over 45% in size
# Conditions: ALDH1A3 enzyme inhibition qHTS validation, fluorescence; series mostly up to 42.4 µM; activity change, negative = inhibition: at the top concentration
# % is scaled to controls: 0 for no effect and ±100 for the full control effect; potency is read from the fitted curve at half-maximal effect.
SMILES,"activity change, negative = inhibition",Potency
C[C@@H]1O[C@@H](O[C@H]2C[C@@H](O)[C@]3(CO)[C@@H]4C(CC[C@]3(O)C2)[C@@]2(O)CC[C@H]([C@@H]3COC(=O)C3)[C@@]2(C)C[C@H]4O)[C@H](O)[C@H](O)[C@H]1O (some centres undefined),inactive: 3.73%,–
Cc1nccc2c1[nH]c1ccccc12,inactive: 8.98%,–
c1ccc(C2CC2)c(OCC2=NCCN2)c1,inactive: 9.29%,–
NC(CCP(=O)(O)O)C(=O)O (centres undefined),inactive: -9.7%,–
CN1C2CCC1CC(OC(c1ccccc1)c1ccccc1N)C2 (centres undefined),inactive: 14.9%,–
Oc1ccc2c3c1O[C@H]1c4[nH]c5ccccc5c4C[C@@]4(O)C(C2)N(CC2CC2)CCC314 (some centres undefined),–,"inconclusive: 11.2 µM [inhibitor, single point]"
CCCN(CCC)C1CCc2ccc(O)cc2C1 (centres undefined),inactive: -1.22%,–
Nc1ccncc1,inactive: 8.2%,–
Cc1ncsc1CCCl,–,"inconclusive: 2.82 µM [inhibitor, full curve]"
CCCN1CCc2cc(O)cc3c2[C@H]1Cc1ccc(O)c(O)c1-3,–,"inconclusive: 12.6 µM [inhibitor, partial curve]"
CCc1c(C(=O)C(N)=O)c2c(OCC(=O)OC)cccc2n1Cc1ccccc1,inactive: -30.7% [at 84.7 µM],–
Clc1ccc(OCC2=NCCN2)cc1Cl,inactive: 0.493% [at 84.7 µM],–
NCCc1ccc(S(=O)(=O)F)cc1,–,"inconclusive: 12.6 µM [inhibitor, partial curve]"
COC(=O)N1CCN(C(=O)Cc2ccc(Cl)c(Cl)c2)[C@@H](CN2CCCC2)C1,–,"inconclusive: 79.4 µM [inhibitor, partial curve, poor fit]"
C[C@@H]1O[C@H](C[N+](C)(C)C)C[C@H]1O,–,"inconclusive: 17.8 µM [inhibitor, single point]"
CN1C2CCC1CC(OC(=O)N1Cc3ccccc3NC1=O)C2 (centres undefined),inactive: 125% [at 84.7 µM],–
CCn1cnc2c(Nc3cccc(Cl)c3)nc(N[C@@H]3CCCC[C@@H]3N)nc21,–,"inconclusive: 12.6 µM [inhibitor, partial curve, poor fit]"
O=C1CC[C@@]2(O)C3Cc4ccc(O)c5c4C2(CCN3CC2CC2)[C@H]1O5 (some centres undefined),–,"inconclusive: 14.1 µM [inhibitor, partial curve, poor fit]"
Cc1c(Cl)c(OCC(=O)N2CCN(C)CC2)nc2sc(C(=O)NC3CC3)c(N)c12,inactive: 20.2% [at 84.7 µM],–
S=C(NC1CCCCC1)N1CCC(c2cnc[nH]2)CC1,inactive: -1.4%,–

SMILES,"activity change, negative = inhibition",Potency
N#CCCN,–,"inconclusive: 7.08 µM [inhibitor, full curve, poor fit]"
CN1C2CCC1CC(OC(=O)c1cc(Cl)cc(Cl)c1)C2 (centres undefined),inactive: 10.9%,–
C[N+](C)(C)CC(=O)O,–,"inconclusive: 4.47 µM [inhibitor, partial curve]"
COc1cc(C(O)CN)ccc1O (centres undefined),inactive: -1.93%,–
NC(C(=O)O)c1cc(=O)[nH]o1 (centres undefined),–,"inconclusive: 3.55 µM [inhibitor, partial curve, poor fit]"
COc1ccc2[nH]cc(CCN)c2c1,inactive: -4.44%,–
C[N+]1(C)CCN(c2ccccc2)CC1,–,"inconclusive: 10 µM [inhibitor, partial curve, poor fit]"
NNC(N)=O,–,"inconclusive: 0.631 µM [inhibitor, full curve, poor fit]"
OCc1cnc[nH]1,–,"inconclusive: 20 µM [inhibitor, partial curve, poor fit]"
O=c1ccc2[nH]cc(C3=CCNCC3)c2[nH]1,–,active: 0.398 µM
NCCc1c[nH]c2ccc(O)cc12,–,"inconclusive: 8.91 µM [inhibitor, partial curve, poor fit]"
c1ccc([C@@H]2C[C@H]2NC2CCNCC2)cc1,–,"inconclusive: 4.47 µM [inhibitor, full curve, poor fit]"
COc1ccccc1N1CCNCC1,–,"inconclusive: 3.98 µM [inhibitor, partial curve, poor fit]"
O=C(CCCN1CCC2(CC1)C(=O)NCN2c1ccccc1)c1ccc(F)cc1,inactive: 19.9%,–
CC1=C2C[C@H]3[C@@H](CC=C4C[C@@H](O)CC[C@@]43C)[C@@H]2CC[C@]12O[C@@H]1C[C@H](C)CN[C@H]1[C@H]2C,inactive: 33.7% [at 84.7 µM],–
Nc1cc2c(ncn2CCOCP(=O)(O)O)c(=O)[nH]1,–,"inconclusive: 7.08 µM [inhibitor, partial curve]"
N[C@@]1(C(=O)O)CC[C@@H](C(=O)O)C1,inactive: -7.39%,–
C[C@@](O)(COc1ccc(C#N)cc1)C(=O)Nc1ccc(C#N)c(C(F)(F)F)c1,–,"inconclusive: 8.91 µM [inhibitor, full curve, poor fit]"
O=C(NC1CN2CCC1CC2)c1cc2ccoc2cn1 (centres undefined),–,"inconclusive: 1 µM [inhibitor, partial curve, poor fit]"
